## Percent effect of library compounds

By UniProt entry, the sequences of proteins in these tests, tags left out.
UniProt I6X8D2, whole entry: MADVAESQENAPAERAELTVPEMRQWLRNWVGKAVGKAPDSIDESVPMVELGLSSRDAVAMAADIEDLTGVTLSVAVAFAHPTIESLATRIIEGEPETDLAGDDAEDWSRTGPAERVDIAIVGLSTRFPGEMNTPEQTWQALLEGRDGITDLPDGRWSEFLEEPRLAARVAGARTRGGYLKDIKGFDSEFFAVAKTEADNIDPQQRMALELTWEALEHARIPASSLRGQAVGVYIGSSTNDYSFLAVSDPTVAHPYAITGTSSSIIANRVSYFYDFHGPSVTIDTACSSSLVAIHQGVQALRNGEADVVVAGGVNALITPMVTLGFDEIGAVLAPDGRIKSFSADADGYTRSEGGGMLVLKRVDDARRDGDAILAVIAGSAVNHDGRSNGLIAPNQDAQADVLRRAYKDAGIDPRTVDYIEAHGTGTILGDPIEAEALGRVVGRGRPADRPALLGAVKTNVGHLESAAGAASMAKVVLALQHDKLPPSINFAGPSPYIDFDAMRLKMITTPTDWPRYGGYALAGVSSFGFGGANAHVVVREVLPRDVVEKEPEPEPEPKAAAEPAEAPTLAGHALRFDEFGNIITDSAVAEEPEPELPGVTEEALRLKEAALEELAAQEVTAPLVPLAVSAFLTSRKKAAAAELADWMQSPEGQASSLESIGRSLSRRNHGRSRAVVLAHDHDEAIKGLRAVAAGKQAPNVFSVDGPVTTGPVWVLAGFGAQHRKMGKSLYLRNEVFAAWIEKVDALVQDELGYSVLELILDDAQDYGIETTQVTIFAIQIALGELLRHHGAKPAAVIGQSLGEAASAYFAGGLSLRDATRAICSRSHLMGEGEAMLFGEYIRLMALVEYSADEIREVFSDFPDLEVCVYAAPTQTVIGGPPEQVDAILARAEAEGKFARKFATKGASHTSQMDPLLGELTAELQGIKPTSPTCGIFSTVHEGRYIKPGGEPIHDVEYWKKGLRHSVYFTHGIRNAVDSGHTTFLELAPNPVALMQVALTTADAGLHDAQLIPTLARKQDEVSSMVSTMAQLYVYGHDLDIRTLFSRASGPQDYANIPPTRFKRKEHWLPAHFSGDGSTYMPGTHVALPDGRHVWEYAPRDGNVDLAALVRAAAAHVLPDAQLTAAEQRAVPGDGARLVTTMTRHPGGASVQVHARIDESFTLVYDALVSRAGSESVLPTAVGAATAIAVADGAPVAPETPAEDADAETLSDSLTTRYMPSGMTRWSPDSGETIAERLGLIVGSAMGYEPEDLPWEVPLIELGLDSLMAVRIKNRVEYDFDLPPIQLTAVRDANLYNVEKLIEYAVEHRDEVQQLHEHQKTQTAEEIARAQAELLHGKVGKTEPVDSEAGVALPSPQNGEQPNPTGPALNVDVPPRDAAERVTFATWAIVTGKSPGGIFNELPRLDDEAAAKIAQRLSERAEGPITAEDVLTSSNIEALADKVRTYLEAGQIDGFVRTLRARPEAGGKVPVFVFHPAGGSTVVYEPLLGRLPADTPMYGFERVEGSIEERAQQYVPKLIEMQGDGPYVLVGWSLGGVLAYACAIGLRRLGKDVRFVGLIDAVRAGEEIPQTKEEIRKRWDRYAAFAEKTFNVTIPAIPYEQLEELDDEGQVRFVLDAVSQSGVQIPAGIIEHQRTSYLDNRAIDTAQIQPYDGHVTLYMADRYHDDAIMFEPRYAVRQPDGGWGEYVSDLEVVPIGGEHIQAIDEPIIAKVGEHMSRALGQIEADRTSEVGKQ
UniProt P9WNZ1, whole entry: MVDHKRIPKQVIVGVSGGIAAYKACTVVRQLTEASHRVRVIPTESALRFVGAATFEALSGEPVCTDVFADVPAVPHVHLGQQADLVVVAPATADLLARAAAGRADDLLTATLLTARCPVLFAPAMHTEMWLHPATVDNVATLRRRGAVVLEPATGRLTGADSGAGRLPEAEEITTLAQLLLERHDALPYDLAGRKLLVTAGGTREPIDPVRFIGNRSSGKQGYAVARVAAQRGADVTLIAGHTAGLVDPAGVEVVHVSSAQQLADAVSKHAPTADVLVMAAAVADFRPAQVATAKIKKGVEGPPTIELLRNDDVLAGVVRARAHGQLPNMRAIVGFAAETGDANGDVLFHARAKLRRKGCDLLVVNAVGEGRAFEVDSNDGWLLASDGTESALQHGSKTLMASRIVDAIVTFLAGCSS
UniProt P9WPC5, whole entry: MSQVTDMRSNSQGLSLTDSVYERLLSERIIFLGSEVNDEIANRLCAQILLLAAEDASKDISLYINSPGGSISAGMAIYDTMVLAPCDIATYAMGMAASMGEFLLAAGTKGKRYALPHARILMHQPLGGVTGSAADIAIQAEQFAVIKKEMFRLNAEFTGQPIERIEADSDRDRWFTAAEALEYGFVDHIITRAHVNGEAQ
UniProt P9WPC3, whole entry partner: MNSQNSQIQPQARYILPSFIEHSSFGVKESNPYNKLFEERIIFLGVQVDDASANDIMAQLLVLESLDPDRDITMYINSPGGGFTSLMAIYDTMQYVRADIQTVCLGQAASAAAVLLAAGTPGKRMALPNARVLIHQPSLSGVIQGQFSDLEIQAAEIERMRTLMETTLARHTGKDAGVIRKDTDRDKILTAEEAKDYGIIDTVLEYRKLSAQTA
UniProt P9WFT3, whole entry: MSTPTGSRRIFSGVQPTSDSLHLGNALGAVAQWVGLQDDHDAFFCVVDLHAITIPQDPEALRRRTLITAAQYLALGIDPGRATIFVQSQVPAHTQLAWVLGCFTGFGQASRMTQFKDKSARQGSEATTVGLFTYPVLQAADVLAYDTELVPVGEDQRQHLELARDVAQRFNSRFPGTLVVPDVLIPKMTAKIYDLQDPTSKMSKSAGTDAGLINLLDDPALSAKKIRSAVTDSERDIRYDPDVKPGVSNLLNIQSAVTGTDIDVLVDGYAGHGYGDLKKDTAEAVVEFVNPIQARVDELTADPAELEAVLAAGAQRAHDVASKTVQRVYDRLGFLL

Data taken from ChEMBL document CHEMBL3988442, “University of Dundee, Small-Polar-MMV Screening Library” (2021).

A: 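Enzyme assay of the thioesterase domain of polyketide synthase 13; the read-out is not stated. Target: Polyketide synthase Pks13, Mycobacterium tuberculosis (UniProt I6X8D2). Concentration: 30 µM. The record gives no direction; the compounds picked for IC50 retests had high values, so higher reads as stronger inhibition. About 67,000 compounds were tested under these conditions; 0.46% (about 300) showed 50% or more at least once.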
B: 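Assay of Toxoplasma gondii numbers, read through their beta-galactosidase reporter with a colour substrate. Compounds at 10 µM. The record gives no direction; the compounds picked for IC50 retests had high values, so higher reads as fewer parasites. Size under these conditions: about 67,000 compounds, about 260 of them at 50% or above in at least one test.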
C: 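Coenzyme A biosynthesis protein CoaBC, Mycobacterium tuberculosis (UniProt P9WNZ1). Enzyme assay of CoaBC with a phosphate dye (Biomol Green) read at 650 nm. Concentration: 30 µM. Higher reads as stronger inhibition, judged from the few compounds that gave an IC50. Most strong results did not repeat in a second test. Of about 67,000 compounds tested this way, about 40 (0.06%) reached 50% or more in at least one test.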
D: 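ClpP1P2, Mycobacterium tuberculosis (UniProt P9WPC5 and UniProt P9WPC3). Protease assay of ClpP1P2, read by the AMC dye that it sets free. Concentration: 50 µM. Higher reads as stronger inhibition, judged from the few compounds that gave an IC50. Most other retested compounds had strongly negative values. Of about 69,000 compounds tested this way, about 10 (0.015%) reached 50% or more in at least one test.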
E: 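Cell assay of Leishmania donovani living inside macrophages; the read-out is not stated. Concentration: 30 µM. The record gives no direction; compounds that gave an IC50 in retests scored well above the rest, so higher reads as stronger inhibition. About 69,000 compounds were tested under these conditions; 1.5% (about 1,000) showed 50% or more at least once.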
F: 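Enzyme assay of tryptophanyl-tRNA synthetase; the read-out is not stated. Target: Tryptophan-tRNA ligase, Mycobacterium tuberculosis (UniProt P9WFT3). Concentration: 10 µM. Higher most likely means stronger inhibition; the record gives no direction and few retests gave an IC50. About 65,000 compounds were tested under these conditions; 0.098% (about 64) showed 50% or more at least once.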

Each number is a percent effect as filed. The record does not define 0% and 100%; most values in the screen are far below 50% and negative numbers occur (in some assays of this library far below -100). The compounds are a random part of those screened. Two or more numbers in one place are separate tests of the same structure; such repeats can differ widely.

With CC(=O)N1CC(c2ccnc(Nc3ccc(C)cn3)n2)C1 the screen gave A: -2.044%; B: -18.29%; C: 4.38%; D: 0.06503%; E: 0.7825% & 3.58%; F: 5.391%. Cc1noc(COCC(=O)N2CCCCC2c2nccs2)n1 (centres undefined) read A: -35.44%; B: 2.464%; D: -3.237%; E: 20.91%; F: 0.1032%. With c1cnn(CC2CCCCN2Cc2cn3ccsc3n2)c1 (centres undefined) the screen gave A: -25.95%; B: -7.744%; C: 6.218%; D: 9.089%; E: 42.56%; F: -0.6681%. Cc1cnccc1CN1C[C@@H](O)[C@H](Oc2cccc(F)c2)C1 read A: -35.48%; B: -4.292%; C: 0.2778%; D: 1.191%; E: 30.2%; F: -0.2508%.

Cc1ccccc1CN(C)C(=O)CCc1nc(-c2nnc[nH]2)no1 read A: -12.49%; B: 3.947%; C: -0.4032%; D: -1.92%; E: -4.761%; F: 1.143%. O=C(c1ccco1)N1CCn2cc(CN3CCCC3)nc2C1 gave A: -1.566%; B: -14.35%; C: 0.5%; D: 0.8271%; E: 11.5%; F: 1.564%. Result for COCC(=O)N1CCc2c(nnn2C)C1COCCN1CCCC1 (centres undefined) was A: -10.26%; C: 9.446%; D: -14.15%; F: -2.929%. For CN(CC(=O)N1CCC(Cc2cccc(C(N)=O)c2)C1)C1CCCC1 (centres undefined) the result was A: 0.9511%; B: 7.218%; C: 5.911%; D: -17.73%; E: -16.06%; F: 4.565%.

Result for Cn1cc(CN2CCC(F)(F)C3(CCN(c4cccnc4)C3)C2)cn1.O=C(O)C(F)(F)F.O=C(O)C(F)(F)F (centres undefined) was B: 0.7422%; E: 0.6501%. For O=C(c1ccsc1)N1CCN2C[C@H](OCc3cccnc3)C[C@H]2C1 the result was A: -16.36%; C: -10.88%; D: 5.373%; F: 1.586%. Cl.Cl.O=C(NCc1cncc2c1CCN(Cc1ccccc1)C2)C1CC1 read B: 0.5702%; E: -14.82%. With [H][C@@]12COC[C@]1(COc1ccc(C#N)cn1)CN(c1cc(OC)ncn1)C2 the screen gave B: 3.174%; E: 56.85%.

For CN(C)C(=O)Cc1ccccc1NCc1cccc(F)c1F the result was A: -13.16%; B: -11.28%; C: -0.1255%; D: -12.44%; E: -4.5%; F: 0.8675%. With c1cnc(N2CCO[C@H]3CN(Cc4cc[nH]n4)C[C@H]32)cn1 the screen gave A: -5.642%; C: -0.2037%; D: -7.243%; F: -1.443%. Result for O=C(c1ccnnc1)N1C[C@H]2CCC[C@@]2(COCc2ccccn2)C1 was A: -10.31%; C: 1.42%; D: 2.785%; F: -2.215%. CCc1ncc(C(=O)N2CCN(Cc3ncccc3C)CC2)cn1 read A: -4.144%; C: 2.066%; D: 6.319%; E: -0.7175%; F: -0.3215%.

With O=C(O)C(F)(F)F.O=C(O)C(F)(F)F.[H][C@]12C[C@H](CN(C)C(C)C)O[C@@]1([H])CN(Cc1ccco1)C2 the screen gave B: -0.9985%; E: 9.492%. For CCS(=O)(=O)N1Cc2ncn(CC3CC3)c2C(COC)C1 (centres undefined) the result was A: -7.812%; B: 18.57%; C: 1.235%; D: -6.856%; E: -10.62%; F: -3.176%. Cc1nc2n(n1)CC(NCc1cc(Cl)c3c(c1)OCCO3)CC2 (centres undefined) gave A: -22.09%; B: 5.131%; C: 1.673%; D: 5.796%; E: 33.42%; F: -2.756%. Result for Cc1noc(C)c1CN(C)CC1CC(C2CCCCC2)=NO1 (centres undefined) was A: -16.52%; B: -3.964%; C: -3.719%; D: 15.06%; E: 5.854%; F: -0.09671%.

Repeated from the top, 2 entries:

* CC(=O)N1CC(c2ccnc(Nc3ccc(C)cn3)n2)C1 | A: -2.044%; B: -18.29%; C: 4.38%; D: 0.06503%; E: 0.7825% & 3.58%; F: 5.391%
* Cc1noc(COCC(=O)N2CCCCC2c2nccs2)n1 (centres undefined) | A: -35.44%; B: 2.464%; D: -3.237%; E: 20.91%; F: 0.1032%